This note sets out measurements from ChEMBL document CHEMBL3526101, “Discovery and characterization of novel, potent, and selective cytochrome P450 2J2 inhibitors” (Drug Metab Dispos, 2013).

Where only a bound is given, the exact number is not on record here.

The assay addresses T1, Cytochrome P450 2J2 (Homo sapiens, UniProt P51589).
T1 sequence (P51589 whole entry): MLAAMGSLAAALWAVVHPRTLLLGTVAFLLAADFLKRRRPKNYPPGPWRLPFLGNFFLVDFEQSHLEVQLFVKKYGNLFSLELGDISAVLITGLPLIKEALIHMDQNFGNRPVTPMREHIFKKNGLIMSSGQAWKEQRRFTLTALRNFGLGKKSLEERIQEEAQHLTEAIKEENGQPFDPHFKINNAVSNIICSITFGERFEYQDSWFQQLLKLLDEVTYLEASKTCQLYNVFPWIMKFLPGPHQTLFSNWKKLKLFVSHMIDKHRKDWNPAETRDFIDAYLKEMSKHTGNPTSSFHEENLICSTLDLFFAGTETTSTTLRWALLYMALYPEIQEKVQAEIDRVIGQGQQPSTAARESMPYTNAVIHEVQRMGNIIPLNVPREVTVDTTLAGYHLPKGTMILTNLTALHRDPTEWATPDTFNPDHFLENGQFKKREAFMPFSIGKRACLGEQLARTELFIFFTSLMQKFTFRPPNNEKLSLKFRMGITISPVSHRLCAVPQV

A word on the IC50: it is the midpoint of a concentration-inhibition curve. A lower IC50 goes with greater potency in that assay. As to `C=CCN1CC[C@]23c4c5ccc(O)c4O[C@H]2C(=O)CC[C@@]3(O)[C@H]1C5` [NALOXONE], the IC50 was greater than 50 µM.
